Data as given in patent US20240299504A1, “COMPOSITIONS AND METHODS FOR TREATING ALZHEIMERS DISEASE” (priority 2023, published 2024).
These are yes or no findings as the source states them, for the method shown. Some binding calls cover weakened binding; strength is not graded here.

Sequences of proteins named here, by UniProt entry; tags and fusion partners are left off. Residues count along the entry.
UniProt P41593, residues 27-591: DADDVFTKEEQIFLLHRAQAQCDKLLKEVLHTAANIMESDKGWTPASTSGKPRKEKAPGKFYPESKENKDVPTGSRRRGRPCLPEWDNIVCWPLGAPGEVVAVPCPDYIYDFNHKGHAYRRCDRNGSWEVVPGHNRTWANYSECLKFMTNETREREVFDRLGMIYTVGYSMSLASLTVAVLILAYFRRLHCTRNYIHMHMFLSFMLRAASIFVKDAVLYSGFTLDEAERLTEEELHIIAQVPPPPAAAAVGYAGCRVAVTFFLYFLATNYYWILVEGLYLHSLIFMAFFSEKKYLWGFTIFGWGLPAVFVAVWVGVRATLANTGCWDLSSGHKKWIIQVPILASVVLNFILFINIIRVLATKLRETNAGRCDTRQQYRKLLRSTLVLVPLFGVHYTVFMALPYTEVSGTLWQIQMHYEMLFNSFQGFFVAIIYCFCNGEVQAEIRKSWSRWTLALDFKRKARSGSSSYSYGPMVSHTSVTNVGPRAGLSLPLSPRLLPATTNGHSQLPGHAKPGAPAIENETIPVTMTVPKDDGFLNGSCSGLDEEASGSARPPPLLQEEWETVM

Target: PTH receptor (PTH1R), parathyroid hormone type 1 receptor, on mouse astrocytes (mouse) (UniProt P41593)
Experiment: in vivo tail-vein injection of Biotin-PTH1-34, anti-biotin immunofluorescence of brain sections co-stained with cell markers; PTH1R expression in astrocytes by RNAscope and Western blot

With SVSEIQLMHNLGKHLNSMERVEWLRKKLQDVHNF (peptide, UniProt P01270 32-65, looked up, biotin label (position not given)) [Biotin-labeled PTH1-34 (ANASPEC, cat #AS-20690)] the binding was “binds”.
